Results reported in the supplement of paper PMC3334620.
In all, about 33,000 sequences were measured (“E-score (-0.5 to 0.5)”: median about -0.0034, highest 2% from about 0.25 on). The list shows a part of the results.

Biological target: T1, Yap3 (UniProt P38749)
T1 sequence: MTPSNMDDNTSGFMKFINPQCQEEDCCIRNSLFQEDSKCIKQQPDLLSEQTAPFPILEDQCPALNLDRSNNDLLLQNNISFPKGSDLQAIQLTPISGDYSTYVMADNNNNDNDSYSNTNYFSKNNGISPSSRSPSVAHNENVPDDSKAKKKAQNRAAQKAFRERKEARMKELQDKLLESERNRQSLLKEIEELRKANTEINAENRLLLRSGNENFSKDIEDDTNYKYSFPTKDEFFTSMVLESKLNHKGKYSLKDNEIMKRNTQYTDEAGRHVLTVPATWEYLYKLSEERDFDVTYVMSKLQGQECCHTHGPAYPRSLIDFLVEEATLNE
Assay: PBM E-score (8-mer binding enrichment) (E-score (-0.5 to 0.5)); higher = stronger / more preferred TF binding
Settings: protein concentration: 100 nM; construct: GST-full length
Outline: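 Universal all-10-mer Agilent arrays, fresh or stripped once, were converted to double-stranded form by primer extension. GST-tagged yeast transcription factors from PURExpress in vitro transcription/translation, full-length or DNA-binding domain only, were applied at about 100-200 nM and detected with fluorescent anti-GST. After masliner normalisation, the Universal PBM Analysis Suite scored each ungapped eight-base word together with its reverse complement by E-score.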

| Sequence | PBM E-score |
| --- | --- |
| CTTATCCA | 0.196 |
| TCTAGACA | 0.00665 |
| CTGAAAGA | 0.0906 |
| CCGTGCGA | -0.0146 |
| ATCAACAC | 0.189 |
| CTTCATAC | 0.172 |
| ACATCTAG | -0.0228 |
| AGTGGAAA | 0.0997 |
| AAGCAGAC | -0.0626 |
| CACACATG | 0.0213 |
| GAGAGCGA | -0.166 |
| CCTTTGCC | -0.192 |
| AATTCGTA | 0.206 |
| GTGCTTTA | 0.121 |
| CGTTGCAG | -0.0459 |
| CCTAATAG | 0.0117 |
| ACATTAGA | 0.0407 |
| GGTGTGAA | 0.161 |
| ACACCGTG | -0.0715 |
| AATGGCGA | 0.0965 |
| CCGGTTGC | 0.0472 |
| GCGAAAAA | 0.197 |
| AGACGGCC | -0.302 |
| CAAATTGG | 0.221 |
| AAATGGGA | 0.0386 |

| Sequence | PBM E-score |
| --- | --- |
| AGGGGTTA | -0.154 |
| GCCTTCAC | -0.0188 |
| TCGATAAA | 0.0941 |
| CACTTTGG | -0.0459 |
| CATCTAAG | -0.0377 |
| AGACCTAC | -0.246 |
| CCAACCCG | -0.192 |
| GGCTTGAA | 0.0362 |
| CCACTGCA | -0.0133 |
| CAAGATGG | -0.0492 |
| CCTAGCTC | -0.211 |
| TAATCGAA | 0.246 |
| AGACCCTG | -0.124 |
| AACATGCA | 0.0696 |
| GGTTTTAA | 0.136 |
| CGCCCCCC | -0.435 |
| GGGGAGAA | -0.118 |
| CGCAGGTA | -0.116 |
| AGCCGGAC | 0.00041 |
| CGTTACTC | -0.0213 |
| CCGGTTAA | -0.148 |
| CCAAACGG | -0.184 |
| ACCTTATA | 0.175 |
| ACCTAGAA | -0.121 |
| TATCATGA | 0.0822 |

Pulled one by one from the entries so far (three):

| Sequence | PBM E-score |
| --- | --- |
| CCTAGCTC | -0.211 |
| CACTTTGG | -0.0459 |
| CTTATCCA | 0.196 |

Additional results follow:

| Sequence | PBM E-score |
| --- | --- |
| GACCCGAC | -0.162 |
| ATTTATAC | 0.302 |
| AATTGGCC | -0.0586 |
| GCCTTCCA | -0.0463 |
| CAGAATCG | 0.00291 |
| ACCTCCTA | -0.246 |
| ATATAGAG | 0.082 |
| GACGGCAC | -0.212 |
| AGTTGGAT | 0.0213 |
| CGACATAC | 0.166 |
| AGTTACAC | 0.0567 |
| GCAGGATA | -0.053 |
| AACCAGAG | 0.0335 |
| CAAGTGTC | -0.108 |
| GCACGACC | -0.0556 |
| CCAATGTA | -0.0747 |
| GTAAAGTA | 0.251 |
| GAACAGAA | 0.164 |
| CCTTAAGA | -0.105 |
| ATTCCCTC | -0.11 |
| AAGCGGGT | -0.168 |
| CACGTAGG | -0.215 |
| CCCGGGCG | -0.12 |
| ACGTACTG | -0.0267 |
| ACCGTGCC | -0.0308 |

| Sequence | PBM E-score |
| --- | --- |
| CTTATTAC | 0.251 |
| CGGAATTC | 0.044 |
| ACGTATCG | -0.0162 |
| AGCGAGAA | -0.0207 |
| CGCAGTGC | -0.192 |
| TCAACAGA | -0.0407 |
| CAGAAGCA | 0.137 |
| ATACTAAC | 0.227 |
| ACGGCTCA | 0.0619 |
| ACGTGCTC | -0.0391 |
| CTCGGCCA | -0.0295 |
| CTACCCAC | -0.154 |
| ATACAGCG | 0.0763 |
| CTTATAAC | 0.165 |
| ACGAGTAA | 0.171 |
| GCTCAGTA | -0.0762 |
| AAAGTTTG | 0.205 |
| CTGCGAGA | -0.255 |
| ACCTACTG | 0.0748 |
| ACTGCTGG | -0.268 |
| CGTGCACC | -0.0988 |
| GATCACCC | -0.0647 |
| TCCTGTAA | 0.127 |
| ACACCTGC | 0.0833 |
| ATGTATTC | 0.0226 |

| Sequence | PBM E-score |
| --- | --- |
| ACAATTCA | 0.113 |
| CCGTGGAC | -0.292 |
| CACAAACG | 0.119 |
| GTCCGAAC | -0.171 |
| AGGGGCAC | -0.217 |
| CGCGTATA | 0.00867 |
| CGGATTAA | 0.0124 |
| CACCTCCG | -0.0971 |
| CACTAGAA | -0.00798 |
| CGAATTTC | 0.298 |
| CCTTTGGC | -0.141 |
| ATCTAGCG | -0.108 |
| AGTGGACA | 0.0206 |
| AGTTCAGG | -0.125 |
| CGGGATAA | 0.0852 |
| TCCAGCGA | 0.0186 |
| AACAACTA | 0.0618 |
| CACGGGCC | -0.248 |
| TAGAACAA | -0.016 |
| CACGACTA | -0.101 |
| GCTAGCCA | -0.116 |
| GTTACCGA | -0.0867 |
| CTCTATGC | -0.0291 |
| GCAACTAC | 0.0978 |
| CGAGGAGC | -0.0996 |

| Sequence | PBM E-score |
| --- | --- |
| AAGTAACC | 0.0184 |
| GCGACAAC | 0.0964 |
| GTACTCCA | -0.0603 |
| GAATTCTA | 0.0732 |
| GAAGTTCC | -0.174 |
| CCAACGAA | -0.0265 |
| CTGAACCC | -0.149 |
| ATCGTATG | 0.0469 |
| CTATAAAA | 0.0227 |
| TAGACCGA | -0.0293 |
| CCTCATTC | -0.0202 |
| ATGCGTCA | 0.169 |
| GCCTAATA | 0.0577 |
| AGACACAC | -0.0816 |
| ATAGCATG | -0.131 |
| GGATAAAA | 0.194 |
| CCACAAGA | 0.0149 |
| CACGACAC | 0.00465 |
| CCGGCGGC | -0.308 |
| AGGTGCGC | -0.166 |
| ATGTTGTC | 0.0739 |
| CGAACCCC | -0.257 |
| CCATCAAA | 0.154 |
| CAGATCAA | -0.0848 |
| GCCAAGCA | -0.097 |

| Sequence | PBM E-score |
| --- | --- |
| ATAGCCCC | -0.373 |
| CGGTGAAG | -0.194 |
| ACGTCAGA | 0.0127 |
| CTGGACTC | -0.0662 |
| AAGCCTTC | -0.0737 |
| GTATCATA | 0.276 |
| AAGACCCA | -0.163 |
| AGTGGGAT | 0.039 |
| CCTTCCCA | 0.0493 |
| CCAGAAGC | -0.118 |
| TAATCTAA | 0.0858 |
| GATACGGC | -0.214 |
| CTAATACA | 0.25 |
| GCACACGC | -0.0783 |
| AAATAACA | 0.192 |
| CCTTTCGC | 0.0129 |
| CGTTGGTC | -0.00712 |
| CGGGTACA | -0.0532 |
| CGCCCGCG | -0.129 |
| CACCGTAG | -0.209 |
| ACTCCTAT | 0.12 |
| AGAAATTG | 0.266 |

Rewritten with bars between the fields: part of the list above
Sequence | PBM E-score
CACGTAGG | -0.215
CCCGGGCG | -0.12
